Results are given in words; binding and its absence hold for the method and conditions named. In cells and extracts the contact can be indirect. One block for each binder: values may come before it.
What was measured:
[1] = target: kinesin-2 heavy chain (human (endogenous in T84)); test: co-IP; T84 cell lysates (50 mM PIPES, 50 mM HEPES, 1 mM EDTA, 2 mM MgSO4, 1% TX-100, 0.5% Igepal, pH 7.0) incubated overnight at 4°C with anti-kinesin-1 heavy chain mAb H1 or anti-kinesin-2 heavy chain mAb K2.4, Protein G-Sepharose; Western blot for junctional proteins
[2] = target: kinesin-1 heavy chain (human (endogenous in T84 and SK-CO-15)); test: as above

binding [1]: no binding
B1: p120 catenin (protein, UniProt O60716 1-968)
chain: MDDSEVESTASILASVKEQEAQFEKLTRALEEERRHVSAQLERVRVSPQDANPLMANGTLTRRHQNGRFVGDADLERQKFSDLKLNGPQDHSHLLYSTIPRMQEPGQIVETYTEEDPEGAMSVVSVETSDDGTTRRTETTVKKVVKTVTTRTVQPVAMGPDGLPVDASSVSNNYIQTLGRDFRKNGNGGPGPYVGQAGTATLPRNFHYPPDGYSRHYEDGYPGGSDNYGSLSRVTRIEERYRPSMEGYRAPSRQDVYGPQPQVRVGGSSVDLHRFHPEPYGLEDDQRSMGYDDLDYGMMSDYGTARRTGTPSDPRRRLRSYEDMIGEEVPSDQYYWAPLAQHERGSLASLDSLRKGGPPPPNWRQPELPEVIAMLGFRLDAVKSNAAAYLQHLCYRNDKVKTDVRKLKGIPVLVGLLDHPKKEVHLGACGALKNISFGRDQDNKIAIKNCDGVPALVRLLRKARDMDLTEVITGTLWNLSSHDSIKMEIVDHALHALTDEVIIPHSGWEREPNEDCKPRHIEWESVLTNTAGCLRNVSSERSEARRKLRECDGLVDALIFIVQAEIGQKDSDSKLVENCVCLLRNLSYQVHREIPQAERYQEAAPNVANNTGPHAASCFGAKKGKDEWFSRGKKPIEDPANDTVDFPKRTSPARGYELLFQPEVVRIYISLLKESKTPAILEASAGAIQNLCAGRWTYGRYIRSALRQEKALSAIADLLTNEHERVVKAASGALRNLAVDARNKELIGKHAIPNLVKNLPGGQQNSSWNFSEDTVISILNTINEVIAENLEAAKKLRETQGIEKLVLINKSGNRSEKEVRAAALVLQTIWGYKELRKPLEKEGWKKSDFQVNLNNASRSQSSHSYDDSTLPLIDRNQKSDKKPDREEIQMSNMGSNTKSLDNNYSTPNERGDHNRTLDRSGDLGDMEPLKGTTPLMQDEGQESLEEELDVLVLDDEGGQVSYPSMQKI

binding [2]: no binding
binding [1]: no binding
B2: occludin (protein, UniProt Q16625 1-522)
chain: MSSRPLESPPPYRPDEFKPNHYAPSNDIYGGEMHVRPMLSQPAYSFYPEDEILHFYKWTSPPGVIRILSMLIIVMCIAIFACVASTLAWDRGYGTSLLGGSVGYPYGGSGFGSYGSGYGYGYGYGYGYGGYTDPRAAKGFMLAMAAFCFIAALVIFVTSVIRSEMSRTRRYYLSVIIVSAILGIMVFIATIVYIMGVNPTAQSSGSLYGSQIYALCNQFYTPAATGLYVDQYLYHYCVVDPQEAIAIVLGFMIIVAFALIIFFAVKTRRKMDRYDKSNILWDKEHIYDEQPPNVEEWVKNVSAGTQDVPSPPSDYVERVDSPMAYSSNGKVNDKRFYPESSYKSTPVPEVVQELPLTSPVDDFRQPRYSSGGNFETPSKRAPAKGRAGRSKRTEQDHYETDYTTGGESCDELEEDWIREYPPITSDQQRQLYKRNFDTGLQEYKSLQSELDEINKELSRLDKELDDYREESEEYMAAADEYNRLKQVKGSADYKSKKNHCKQLKSKLSHIKKMVGDYDRQKT

binding [2]: no binding
binding [1]: no binding
B3: junctional adhesion molecule (JAM)-A (protein, UniProt Q9Y624 28-299)
chain: SVTVHSSEPEVRIPENNPVKLSCAYSGFSSPRVEWKFDQGDTTRLVCYNNKITASYEDRVTFLPTGITFKSVTREDTGTYTCMVSEEGGNSYGEVKVKLIVLVPPSKPTVNIPSSATIGNRAVLTCSEQDGSPPSEYTWFKDGIVMPTNPKSTRAFSNSSYVLNPTTGELVFDPLSASDTGEYSCEARNGYGTPMTSNAVRMEAVERNVGVIVAAVLVTLILLGILVFGIWFAYSRGHFDRTKKGTSSKKVIYSQPSARSEGEFKQTSSFLV
